# Results from US20100240627A1, “COMPOSITION AND METHODS RELATING TO GLUCOCORTICOID RECEPTOR-ALPHA AND PEROXISOME PROLIFERATOR-ACTIVATED RECEPTORS” (Universiteit Gent, priority 2007, published 2010).
# At least one structure is not confirmed: it was looked up by name or label, or the drawing left a doubt.
# Test system: GRE-driven gene expression
# Assay: p(GRE)2-50-luc reporter in L929sA cells with mock DNA or pSG5-PPARγ
# Format: cell-based
# Conditions: 7 h, DEX 1 μM, Rosi 10 μM
structure (smiles),measurement,setting,value
"CN(CCOc1ccc(CC2SC(=O)NC2=O)cc1)c1ccccn1 (centres unmarked) [Rosi, rosiglitazone]",DEX-induced GRE-driven gene expression (luc),"mock DNA (white bars), FIG. 11B/14B",antagonizes the DEX-induced GRE-driven gene expression
same,DEX-induced GRE-driven gene expression (luc),overexpression of PPARγ (black bars),enforces the effect even further
